Common to all, as to assay: tandem affinity purification (GS tag) from Arabidopsis cell suspension culture, mass spectrometry
Experiment [1] concerns the target Cytochrome bd ubiquinal oxidase (Arabidopsis thaliana).
Experiment [2] concerns the target PLDPT phospholipase (Arabidopsis thaliana).
Experiment [3] deals with an alpha/beta hydrolase protein.
Experiment [4] addresses a protein kinase.

These are yes or no findings as the source states them, for the method shown. In cells and extracts the contact can be indirect. These calls come from enrichment with a bait or labelling near it, and not all partners need be listed. Sequences can lack the tags named with a protein.

B1: C-terminally GS-tagged PIRIN2 (Arabidopsis thaliana Pirin-like protein At2g43120) (protein, not shown: large carriers)
chain: MRAAINRANSLGGLFSFRFIRNIKSMSSSTSQDFVSRPVIKKVFAKLQKEGDGAVVRRGISRSEQKLLDPFLMLDEFSVSPPAGFPDHPHRGFETVTYVLEGGITHQDFKGHKGTIYAGDVQWMTAGRGIIHSEMPEEEVNKGLQLWINLSSNEKMIEPNYQELSHSDIPKAEQNGVEVKVIAGESMGIQSPVYTRTPTMFLDFTLQPGAQIHQNVPESWNAFAYILESGEGGGVFSSSNSSPIPAHSVVVFGPGNDGVSVWNKSSSKQLRFVLIAGEPIGEPVVQYGPFVMNTQAEIDMTIEDYHYGKNGFEMAKYWRSQ
Regarding B1, in experiment [1], the binding result was “binds”.

B2: N-terminally GS-tagged PIRIN4 (Arabidopsis thaliana Pirin-like protein At1g50590) (protein, not shown: large carriers)
chain: MPISEKSSATNTRLVVKKLFARQLHEGFGAVVRRSIGRFEFRYFDPFLVLDEFSVSAPAGFPDHPHRGFETVTYMLEGEILHEDCEGHKGVIREGGLQWMTAGKGIVHSEMPSSNSNGITHNKGLQLWINLSSRQKLVEPSYQEIESKDIAETEKDGVRVRVIAGEWNGVKSKICTRTPTMYLDFTLSPGSRISQPIPLHWNAFVYVLQGHGHFGDSKLQHSAAAAHHLLVLGLGGDMLEAWNGSDSGLPLRFILVAGEPIGEPMVQFGPFVMNTQEEIDETIDDFENFRNGFEKARHWKSQAASALGLF
Consider B2, for which the binding entry in experiment [2], in experiment [3] and in experiment [4] was “binds” each time.

These data come from US20170247715A1.
